Assay results reported in patent US20020169123A1, “Regulating apoptosis in TRAIL-resistant cancer cells, while protecting normal, non-cancerous cells” (THE TRUSTEES OF THE UNIVERSITY OF PENNSYLVANIA, priority 2001, published 2002).
No constants are given. Whether binding was seen depends on the method and setting. Some results given as binding are weak or reduced against the parent protein; the word gives no strength.

Sequences of proteins named here, by UniProt entry; tags and fusion partners are left off. Residues count along the entry.
UniProt P50591, residues 95-281: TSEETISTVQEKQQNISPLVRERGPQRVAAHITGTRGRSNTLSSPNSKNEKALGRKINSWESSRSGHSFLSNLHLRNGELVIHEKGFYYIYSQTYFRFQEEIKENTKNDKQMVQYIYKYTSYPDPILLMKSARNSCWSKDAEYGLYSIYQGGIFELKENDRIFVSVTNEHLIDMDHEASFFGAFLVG

Molecular target: isoleucine zipper (ILZ) fused with extra-cellular portion of TRAIL (amino acids 95 to 281), secreted from TE5 cells infected with Ad-ILZ-TR (UniProt P50591)
Test: EGS (1 mM) cross-linking of supernatant, 12% SDS-PAGE, anti-TRAIL western blot; self-association

Substance: isoleucine zipper (ILZ) fused with extra-cellular portion of TRAIL (amino acids 95 to 281), secreted from TE5 cells infected with Ad-ILZ-TR (from UniProt P50591 95-281) (ligand)
- binding: binds
